{"source": "PubChem BioAssay AID686943 – Drosophila RNAi Screening Center | 2013", "aim": "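Fly genes whose loss alters ERK activation after insulin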 (primary screen)", "cell system": "Drosophila S2R+ haemocyte-like cells expressing YFP-tagged ERK (Rolled)", "knock-down reagent": "long dsRNA against Drosophila genes", "conditions": "insulin stimulation versus unstimulated cells; dose and duration not given", "measured": "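Antibody staining for doubly phosphorylated ERK divided by ERK-YFP signal, as plate z-scores, in insulin-treated and untreated cells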", "direction": "replicate 1, z-score of dpERK with insulin and replicate 2, z-score of dpERK with insulin: higher = more active ERK per ERK-YFP after insulin", "note": "The screen tested about 23,000 reagents; shown is a random part of those that have a named target and a result. 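Extra replicates exist only for a retested subset of genes; insulin dose and duration not given; both raised and lowered dpERK matter.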 Reagents against one gene are numbered here. Not all columns of the deposit are shown. Not stated in the record: the amount of reagent, the time to read-out."}
{"predicted target":"CG33098","dsRNA no.":1,"replicate 1, z-score of dpERK with insulin":0.94,"replicate 2, z-score of dpERK with insulin":0.39}
{"predicted target":"CG13532","dsRNA no.":1,"replicate 1, z-score of dpERK with insulin":0.76,"replicate 2, z-score of dpERK with insulin":0.66}
{"predicted target":"Mnt","dsRNA no.":1,"replicate 1, z-score of dpERK with insulin":-0.71,"replicate 2, z-score of dpERK with insulin":0.92}
{"predicted target":"Mnt","dsRNA no.":2,"replicate 1, z-score of dpERK with insulin":0.81,"replicate 2, z-score of dpERK with insulin":1.52}
{"predicted target":"yps","dsRNA no.":1,"replicate 1, z-score of dpERK with insulin":0.58,"replicate 2, z-score of dpERK with insulin":-0.2}
{"predicted target":"CG13634","dsRNA no.":1,"replicate 1, z-score of dpERK with insulin":-0.6,"replicate 2, z-score of dpERK with insulin":0.25}
{"predicted target":"CG1674","dsRNA no.":1,"replicate 1, z-score of dpERK with insulin":0.82,"replicate 2, z-score of dpERK with insulin":0.57}
{"predicted target":"CG1674","dsRNA no.":2,"replicate 1, z-score of dpERK with insulin":0.27,"replicate 2, z-score of dpERK with insulin":0.23}
{"predicted target":"CG14052","dsRNA no.":1,"replicate 1, z-score of dpERK with insulin":0,"replicate 2, z-score of dpERK with insulin":-1.92}
{"predicted target":"CG14052","dsRNA no.":2,"replicate 1, z-score of dpERK with insulin":0.18,"replicate 2, z-score of dpERK with insulin":1.03}
{"predicted target":"CG13040","dsRNA no.":1,"replicate 1, z-score of dpERK with insulin":-0.46,"replicate 2, z-score of dpERK with insulin":-0.95}
{"predicted target":"Ttd14","dsRNA no.":1,"replicate 1, z-score of dpERK with insulin":-0.26,"replicate 2, z-score of dpERK with insulin":0.08}
{"predicted target":"Ttd14","dsRNA no.":2,"replicate 1, z-score of dpERK with insulin":1.28,"replicate 2, z-score of dpERK with insulin":0.93}

2 entries from above, set out differently.
{"predicted target": "CG13040", "dsRNA no.": 1, "replicate 1, z-score of dpERK with insulin": -0.46, "replicate 2, z-score of dpERK with insulin": -0.95}
{"predicted target": "Ttd14", "dsRNA no.": 1, "replicate 1, z-score of dpERK with insulin": -0.26, "replicate 2, z-score of dpERK with insulin": 0.08}
